The supplement of paper PMC3334620
The full ranking holds about 33,000 sequences; the median of “E-score (-0.5 to 0.5)” is about -0.0059, and the highest 2% start at about 0.26. The list shows a part of the results.

Target: T1, Cin5 (UniProt P40917)
T1 sequence: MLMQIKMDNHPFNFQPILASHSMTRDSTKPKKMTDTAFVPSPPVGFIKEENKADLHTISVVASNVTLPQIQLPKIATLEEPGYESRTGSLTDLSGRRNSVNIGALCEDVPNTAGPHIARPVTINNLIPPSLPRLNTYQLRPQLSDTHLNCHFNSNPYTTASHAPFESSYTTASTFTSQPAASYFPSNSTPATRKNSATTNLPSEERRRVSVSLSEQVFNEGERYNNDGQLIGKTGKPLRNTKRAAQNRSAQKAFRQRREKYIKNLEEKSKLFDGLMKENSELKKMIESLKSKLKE
Experiment: PBM E-score (8-mer binding enrichment) (E-score (-0.5 to 0.5)); higher = stronger / more preferred TF binding
Conditions: protein concentration: 100 nM; construct: GST-full length
Summary of the method: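 Masliner-normalised scans of fluorescent anti-GST signal were the basis for scoring. That signal came from GST-tagged yeast transcription factors applied at about 100-200 nM to double-stranded universal all-10-mer Agilent arrays on fresh or once-stripped slides. Each ungapped eight-base word, pooled with its reverse complement, received an E-score from the Universal PBM Analysis Suite.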

Sequence	PBM E-score
AGGTAGGA	-0.0926
GAAAGCAA	0.102
ACACGATA	-0.0616
GTTAGACA	0.101
AACGCGAA	0.281
GTCGAGTA	0.114
ACGCCGCC	-0.184
AGTGAGTA	0.284
CACTTTTA	-0.0251
CGCCTCAA	-0.11
AATGCGTG	0.0645
AATCCGGA	0.234
CGTGTGTA	0.124
ATAACTAT	0.176
GGCATGAC	-0.166
TACTAATA	0.193
CGGTGACG	-0.0802
GCGCGCAC	0.0199
CTCATCTC	0.141
CTAGTAGC	-0.105
CCAGCGGC	-0.0378
GCCCAGAA	-0.0597

Sequence	PBM E-score
CCTTAGCG	-0.0913
AAGGTCTA	-0.0945
AATCGCAT	0.192
ATTGAAGC	-0.117
TATTTGAA	0.124
CCAACACA	0.0655
CTTAGACA	-0.202
ACTCATAC	0.152
CCTGCTCA	-0.177
CCGCTGAA	-0.00931
ACTACGAG	0.0298
GCCTTGAC	-0.173
AAAAAGGT	0.0712
AAGTAACA	0.316
AGTTATTC	0.101
CTGGGGAC	-0.215
GGGGTACC	-0.32
ATACAGTG	0.0803
ACTTGGTA	0.0366
CCATACGC	0.168
AGTGGTTA	0.098
AGGGTAGG	-0.0583

Sequence	PBM E-score
AAGCCTTA	-0.0493
GTCGTGCA	-0.0492
AAAGACTG	-0.182
GCGGCGAA	0.0245
ATTGTAGA	0.173
TAGTAGAA	0.0578
GGGCTTAA	-0.0528
CCTCCACC	-0.237
CAACTGGC	-0.0517
GAGATCGA	0.0654
GCTGACCC	-0.143
ACGATCAA	0.112
ACGGAGCA	0.0794
ACTTTACT	0.184
AAATCGCG	0.106
GGTAGAGA	0.0876
CAATACCA	0.0989
TCTACTAA	0.171
TGCGCGAA	0.137
TCCATCGA	0.071
ATGGGGTA	0.142
TCGGAAGA	-0.182

Sequence	PBM E-score
ATGGATCC	0.0853
GATTCGAC	-0.0383
GGGTTGTA	-0.0393
GTACCAAA	0.139
CGAGGACG	-0.118
AACCTCAA	0.0121
CATATGCG	0.0727
GGCTCTTA	-0.148
CGTATTTC	0.0605
ATTTACCG	0.174
GTCCGGTA	-0.0658
ACAATTAA	0.221
CACCAACC	0.0602
ACAGTCAG	-0.0425
CACACTGG	-0.0632
CAATCAGA	0.0452
AGAAGCGA	0.0278
CGTGTCGC	-0.13
AAACCATA	0.0572
GAGCCATA	-0.0932
CCACGCGA	0.0385
AAGAGCAC	-0.0573

Sequence	PBM E-score
AAGATGAG	-0.15
GAGCTAGC	0.0195
CTCGCTAC	-0.0551
GATAGTGA	0.176
CCAAGGGG	-0.145
CGTTAACA	0.0465
CGGGAGTC	-0.154
ATAACAGG	-0.0304
AATAACGT	0.0882
AACACTTA	0.154
CATGGATA	0.0561
GCGAAAAC	-0.161
ATCGCGAA	0.184
AAGGCGAT	-0.0973
CTGGGCGA	-0.23
ATCGACCG	-0.0503
CGAGTTGC	0.161
GCCTCACA	0.0319
CGAAATCA	0.231
CGAGAAGA	0.135
AAGTAACT	0.186
ACTGTTAT	0.215

Reformatted with bars between the fields: part of the list above
Sequence | PBM E-score
ACAATTAA | 0.221
CACCAACC | 0.0602
ACAGTCAG | -0.0425
CACACTGG | -0.0632
CAATCAGA | 0.0452
AGAAGCGA | 0.0278
CGTGTCGC | -0.13
AAACCATA | 0.0572
GAGCCATA | -0.0932
CCACGCGA | 0.0385
AAGAGCAC | -0.0573
AAGATGAG | -0.15
GAGCTAGC | 0.0195
CTCGCTAC | -0.0551
GATAGTGA | 0.176
CCAAGGGG | -0.145
CGTTAACA | 0.0465
CGGGAGTC | -0.154
ATAACAGG | -0.0304
AATAACGT | 0.0882
AACACTTA | 0.154
CATGGATA | 0.0561
GCGAAAAC | -0.161
ATCGCGAA | 0.184
AAGGCGAT | -0.0973
CTGGGCGA | -0.23
ATCGACCG | -0.0503
CGAGTTGC | 0.161
GCCTCACA | 0.0319
CGAAATCA | 0.231
CGAGAAGA | 0.135
AAGTAACT | 0.186
ACTGTTAT | 0.215
